No constants are given. Whether binding was seen depends on the method and setting. In cells and extracts the contact can be indirect. A result given as binding can be weak or reduced; the word gives no strength.
Target: Myc-tagged wild-type rat nNOS (rat) (UniProt P29476)
Test: co-IP; HEK293T cells cotransfected with Myc-nNOS and GFP-PKD1 forms, untreated or treated with 200 nM PDBu for 15 min; RIPA lysates, immunoprecipitation with anti-Myc antibody 4 h at 4°C, immunoblot with anti-GFP and anti-Myc

Chains of the proteins cited; added tags and fusions are not shown. Lines headed by an entry give the natural chain unless they say otherwise; changes in a name come on top.
UniProt P29476: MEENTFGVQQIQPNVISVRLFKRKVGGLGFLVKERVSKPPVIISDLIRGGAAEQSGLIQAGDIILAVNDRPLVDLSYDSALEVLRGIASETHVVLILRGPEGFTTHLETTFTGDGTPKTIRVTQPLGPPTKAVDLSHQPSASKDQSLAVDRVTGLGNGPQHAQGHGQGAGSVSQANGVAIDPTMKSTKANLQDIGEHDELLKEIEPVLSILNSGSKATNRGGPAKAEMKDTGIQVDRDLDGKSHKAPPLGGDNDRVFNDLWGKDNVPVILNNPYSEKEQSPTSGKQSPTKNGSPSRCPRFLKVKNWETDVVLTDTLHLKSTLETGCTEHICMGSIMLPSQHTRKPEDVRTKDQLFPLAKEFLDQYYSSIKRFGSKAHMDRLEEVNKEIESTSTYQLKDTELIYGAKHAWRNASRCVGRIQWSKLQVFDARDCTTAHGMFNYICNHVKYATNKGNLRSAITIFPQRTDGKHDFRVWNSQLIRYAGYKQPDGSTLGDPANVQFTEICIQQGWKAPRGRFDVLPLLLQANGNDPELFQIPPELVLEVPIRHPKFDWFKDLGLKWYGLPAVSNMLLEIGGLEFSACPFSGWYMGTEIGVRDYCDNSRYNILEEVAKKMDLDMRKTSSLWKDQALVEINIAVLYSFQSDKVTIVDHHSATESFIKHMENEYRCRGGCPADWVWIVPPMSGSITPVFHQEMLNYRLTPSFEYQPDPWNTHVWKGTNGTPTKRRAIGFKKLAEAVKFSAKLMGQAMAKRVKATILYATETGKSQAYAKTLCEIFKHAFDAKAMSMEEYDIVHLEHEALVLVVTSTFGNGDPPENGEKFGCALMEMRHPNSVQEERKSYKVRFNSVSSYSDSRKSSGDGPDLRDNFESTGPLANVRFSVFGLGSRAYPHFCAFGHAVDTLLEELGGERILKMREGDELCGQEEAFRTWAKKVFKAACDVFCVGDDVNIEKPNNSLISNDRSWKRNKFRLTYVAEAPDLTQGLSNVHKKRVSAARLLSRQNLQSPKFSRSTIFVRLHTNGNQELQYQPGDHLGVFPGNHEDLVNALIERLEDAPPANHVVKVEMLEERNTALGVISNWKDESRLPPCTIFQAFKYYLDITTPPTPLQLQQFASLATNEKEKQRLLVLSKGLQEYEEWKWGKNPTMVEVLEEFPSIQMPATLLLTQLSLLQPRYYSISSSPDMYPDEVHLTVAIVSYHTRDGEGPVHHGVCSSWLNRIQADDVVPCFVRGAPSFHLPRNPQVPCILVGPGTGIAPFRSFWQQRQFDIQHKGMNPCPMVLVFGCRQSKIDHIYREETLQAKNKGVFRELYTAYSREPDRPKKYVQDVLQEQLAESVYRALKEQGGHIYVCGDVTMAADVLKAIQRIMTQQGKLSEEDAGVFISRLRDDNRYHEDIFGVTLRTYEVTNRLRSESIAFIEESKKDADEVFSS
UniProt Q62101: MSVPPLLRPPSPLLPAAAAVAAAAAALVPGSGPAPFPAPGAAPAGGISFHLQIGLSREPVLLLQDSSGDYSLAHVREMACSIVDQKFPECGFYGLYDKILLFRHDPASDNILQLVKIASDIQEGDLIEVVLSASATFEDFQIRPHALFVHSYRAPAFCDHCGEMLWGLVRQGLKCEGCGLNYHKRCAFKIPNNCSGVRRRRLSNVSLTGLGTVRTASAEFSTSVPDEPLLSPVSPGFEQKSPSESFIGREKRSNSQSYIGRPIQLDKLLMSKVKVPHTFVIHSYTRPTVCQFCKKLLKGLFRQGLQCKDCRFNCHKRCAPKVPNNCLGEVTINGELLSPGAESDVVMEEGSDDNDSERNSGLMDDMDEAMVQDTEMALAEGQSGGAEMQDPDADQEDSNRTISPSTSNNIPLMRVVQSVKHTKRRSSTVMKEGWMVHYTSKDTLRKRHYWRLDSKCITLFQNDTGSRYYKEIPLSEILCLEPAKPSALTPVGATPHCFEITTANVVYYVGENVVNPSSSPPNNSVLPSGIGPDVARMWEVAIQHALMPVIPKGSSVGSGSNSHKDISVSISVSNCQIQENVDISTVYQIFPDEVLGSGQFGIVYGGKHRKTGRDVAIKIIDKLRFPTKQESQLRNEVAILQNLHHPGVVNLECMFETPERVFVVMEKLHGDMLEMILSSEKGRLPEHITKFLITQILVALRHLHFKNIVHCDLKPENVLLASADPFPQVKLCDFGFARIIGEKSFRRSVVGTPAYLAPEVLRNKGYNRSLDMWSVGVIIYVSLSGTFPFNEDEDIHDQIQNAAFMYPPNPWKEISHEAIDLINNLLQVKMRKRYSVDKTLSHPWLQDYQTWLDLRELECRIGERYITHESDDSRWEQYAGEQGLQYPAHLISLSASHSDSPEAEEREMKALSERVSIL

Row | Substance | binding
1 | GFP-PKD1 deletion mutant lacking the CRD domain (from UniProt Q62101) (enzyme) | binds
2 | GFP-PKD1 deletion mutant lacking the PH-domain (from UniProt Q62101) (enzyme) | no binding

Reference: PMC3989272
